# Reference: the supplement of paper PMC8728848
# This is one part of the list.
# B1: PX14343E-bfa-545-24-545 (Bacteroides fragilis) (protein)
# chain: LDRYPQEELSDGSFWKTPDDANKVVSDLYGYLSTWDQDNDINSDNATMGIKWAAGNVSKGIYDPADQGWSGDYANVRQCNLILSKIDEIPDYPEADKTKALGQVYFFRAYIYFNLIRSFGDVPYIDKPLDLKDMEGITRMPRAEVYEKIMADFDKAIAALPTEWGASDYGRVTKGAAMAMKARAALYYGNWDTAATEAKNVMDLGLYELYDKDNTGKYAELFWEKADGCDEFILVTQFNYPDKTHYLMGWECFPTKGWGGMNPTQSLVDAFEDSEGAPISKSKIYDPTDPFKNRDPRLEVDILHDGEEMYGVTIKVAPLASSGSTGINQHNDATETGYYGQKWLDPSLDPLSDGWNMGKDWVHIRYAEVLLTYAEAKNELQGLDPEAFDAVNQVRRRVGMPELQNTDPSKPTYCATQDDLRQRIRNEWRVEFCLEGGKRMWDIRRWGIAKDVLNAPFEGLKYKIVDNPNDPDKKVDGGKMCILYQGDPIILSGSRYSDNNYLFPVPQSEIDLNPALTQNPGY
# Assays:
# Assay in all cases: glycan array binding signal (z-score within array); higher = stronger binding
# Settings in all cases: glycan notation: IUPAC condensed, linker removed
# Fuc(a1-3)GlcNAc = biological target: Fuc(a1-3)GlcNAc
# Summary of the method: (§1)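 The binding signal is a Z-score computed within each array and averaged over linkers. Arrays of the same protein sequence at different concentrations or buffers were also averaged together. Data originate from 3228 arrays in the Consortium for Functional Glycomics database, kept only where the protein sequence was available.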
# [1] = biological target: Fuc(a1-3)[Gal(b1-4)]Glc6S
# Summary of the method: as §1
# [2] = biological target: Fuc(a1-3)[Gal(b1-4)]GlcNAc
# Summary of the method: as §1
# [3] = biological target: Fuc(a1-3)[Gal(b1-4)]GlcNAc(b1-2)Man
# Summary of the method: as §1
# [4] = biological target: Fuc(a1-3)[Gal(b1-4)]GlcNAc(b1-2)Man(a1-3)[Fuc(a1-3)[Gal(b1-4)]GlcNAc(b1-2)Man(a1-6)]Man(b1-4)GlcNAc(b1-4)GlcNAc
# Summary of the method: as §1
# [5] = biological target: Fuc(a1-3)[Gal(b1-4)]GlcNAc(b1-2)Man(a1-3)[Fuc(a1-3)[Gal(b1-4)]GlcNAc(b1-2)Man(a1-6)]Man(b1-4)GlcNAc(b1-4)[Fuc(a1-6)]GlcNAc
# Summary of the method: as §1
# [6] = biological target: Fuc(a1-3)[Gal(b1-4)]GlcNAc(b1-3)Gal(b1-3)[Fuc(a1-4)]GlcNAc
# Summary of the method: as §1
# [7] = biological target: Fuc(a1-3)[Gal(b1-4)]GlcNAc(b1-3)Gal(b1-4)[Fuc(a1-3)]GlcNAc
# Summary of the method: as §1
# [8] = biological target: Fuc(a1-3)[Gal(b1-4)]GlcNAc(b1-3)Gal(b1-4)[Fuc(a1-3)]GlcNAc(b1-3)Gal(b1-4)[Fuc(a1-3)]GlcNAc
# Summary of the method: as §1
# [9] = biological target: Fuc(a1-3)[Gal(b1-4)]GlcNAc(b1-3)GalNAc
# Summary of the method: as §1
# [10] = biological target: Fuc(a1-3)[Gal(b1-4)]GlcNAc(b1-6)GalNAc
# Summary of the method: as §1
# [11] = biological target: Fuc(a1-3)[Gal(b1-4)]GlcNAc(b1-6)[Gal(b1-3)GlcNAc(b1-3)]Gal(b1-4)Glc
# Summary of the method: as §1
# [12] = biological target: Fuc(a1-3)[Gal(b1-4)]GlcNAc6S
# Summary of the method: as §1
# [13] = biological target: Fuc(a1-3)[Gal3S(b1-4)]Glc
# Summary of the method: as §1
# [14] = biological target: Fuc(a1-3)[Gal3S(b1-4)]GlcNAc
# Summary of the method: as §1
# [15] = biological target: Fuc(a1-3)[Gal3S(b1-4)]GlcNAc6S
# Summary of the method: as §1
# [16] = biological target: Fuc(a1-3)[GalNAc(b1-4)]GlcNAc
# Summary of the method: as §1
# [17] = biological target: Fuc(a1-3)[GalNAc(b1-4)]GlcNAc6S
# Summary of the method: as §1
# Fuc(a1-4)GlcNAc = biological target: Fuc(a1-4)GlcNAc
# Summary of the method: as §1
# Fuc(b1-3)GlcNAc = biological target: Fuc(b1-3)GlcNAc
# Summary of the method: as §1
# Gal(a1-2)Gal = biological target: Gal(a1-2)Gal
# Summary of the method: as §1
# Gal(a1-3)Gal = biological target: Gal(a1-3)Gal
# Summary of the method: as §1
# Gal(a1-3)Gal(b1-3)GlcNAc = biological target: Gal(a1-3)Gal(b1-3)GlcNAc
# Summary of the method: as §1
# [18] = biological target: Gal(a1-3)Gal(b1-3)GlcNAc(b1-2)Man
# Summary of the method: as §1
# [19] = biological target: Gal(a1-3)Gal(b1-3)GlcNAc(b1-2)Man(a1-3)[Gal(a1-3)Gal(b1-3)GlcNAc(b1-2)Man(a1-6)]Man(b1-4)GlcNAc(b1-4)GlcNAc
# Summary of the method: as §1
# [20] = biological target: Gal(a1-3)Gal(b1-3)GlcNAc(b1-3)GalNAc
# Summary of the method: as §1
# [21] = biological target: Gal(a1-3)Gal(b1-3)GlcNAc(b1-6)GalNAc
# Summary of the method: as §1
# [22] = biological target: Gal(a1-3)Gal(b1-3)[Fuc(a1-4)]GlcNAc(b1-2)Man(a1-3)[Gal(a1-3)Gal(b1-3)[Fuc(a1-4)]GlcNAc(b1-2)Man(a1-6)]Man(b1-4)GlcNAc(b1-4)GlcNAc
# Summary of the method: as §1
# Gal(a1-3)Gal(b1-4)Glc = biological target: Gal(a1-3)Gal(b1-4)Glc
# Summary of the method: as §1
# Gal(a1-3)Gal(b1-4)GlcNAc = biological target: Gal(a1-3)Gal(b1-4)GlcNAc
# Summary of the method: as §1
# [23] = biological target: Gal(a1-3)Gal(b1-4)GlcNAc(b1-2)Man
# Summary of the method: as §1
# [24] = biological target: Gal(a1-3)Gal(b1-4)GlcNAc(b1-2)Man(a1-3)[Gal(a1-3)Gal(b1-4)GlcNAc(b1-2)Man(a1-6)]Man(b1-4)GlcNAc(b1-4)GlcNAc
# Summary of the method: as §1
# [25] = biological target: Gal(a1-3)Gal(b1-4)GlcNAc(b1-3)GalNAc
# Summary of the method: as §1
# [26] = biological target: Gal(a1-3)Gal(b1-4)GlcNAc(b1-6)GalNAc
# Summary of the method: as §1
# [27] = biological target: Gal(a1-3)Gal(b1-4)[Fuc(a1-3)]GlcNAc
# Summary of the method: as §1
# [28] = biological target: Gal(a1-3)Gal(b1-4)[Fuc(a1-3)]GlcNAc(b1-2)Man(a1-3)[Gal(a1-3)Gal(b1-4)[Fuc(a1-3)]GlcNAc(b1-2)Man(a1-6)]Man(b1-4)GlcNAc(b1-4)GlcNAc
# Summary of the method: as §1
# Gal(a1-3)GalNAc = biological target: Gal(a1-3)GalNAc
# Summary of the method: as §1
binder,measurement,setting,value
B1,glycan array binding signal (z-score),Fuc(a1-3)GlcNAc,-0.519
same,glycan array binding signal (z-score),[1],-0.456
same,glycan array binding signal (z-score),[2],-0.254
same,glycan array binding signal (z-score),[3],0.56
same,glycan array binding signal (z-score),[4],4.63
same,glycan array binding signal (z-score),[5],1.08
same,glycan array binding signal (z-score),[6],0.483
same,glycan array binding signal (z-score),[7],1.39
same,glycan array binding signal (z-score),[8],0.244
same,glycan array binding signal (z-score),[9],1.3
same,glycan array binding signal (z-score),[10],0.581
same,glycan array binding signal (z-score),[11],-0.048
same,glycan array binding signal (z-score),[12],-1.05
same,glycan array binding signal (z-score),[13],-0.931
same,glycan array binding signal (z-score),[14],-0.676
same,glycan array binding signal (z-score),[15],0.797
same,glycan array binding signal (z-score),[16],0.672
same,glycan array binding signal (z-score),[17],0.495
same,glycan array binding signal (z-score),Fuc(a1-4)GlcNAc,-0.837
same,glycan array binding signal (z-score),Fuc(b1-3)GlcNAc,-0.51
same,glycan array binding signal (z-score),Gal(a1-2)Gal,0.553
same,glycan array binding signal (z-score),Gal(a1-3)Gal,-0.002
same,glycan array binding signal (z-score),Gal(a1-3)Gal(b1-3)GlcNAc,0.188
same,glycan array binding signal (z-score),[18],-0.223
same,glycan array binding signal (z-score),[19],0.086
same,glycan array binding signal (z-score),[20],0.177
same,glycan array binding signal (z-score),[21],0.238
same,glycan array binding signal (z-score),[22],2.95
same,glycan array binding signal (z-score),Gal(a1-3)Gal(b1-4)Glc,-0.693
same,glycan array binding signal (z-score),Gal(a1-3)Gal(b1-4)GlcNAc,-1.27
same,glycan array binding signal (z-score),[23],-0.268
same,glycan array binding signal (z-score),[24],4.55
same,glycan array binding signal (z-score),[25],0.972
same,glycan array binding signal (z-score),[26],0.58
same,glycan array binding signal (z-score),[27],-0.568
same,glycan array binding signal (z-score),[28],3.48
same,glycan array binding signal (z-score),Gal(a1-3)GalNAc,-0.817

# Shown with tabs: part of the list above.
binder	measurement	setting	value
B1	glycan array binding signal (z-score)	[23]	-0.268
same	glycan array binding signal (z-score)	[24]	4.55
